# Data from PubChem BioAssay AID1508600 (Functional Genomics Laboratory (NCATS/FGL), 2020).
# In all, about 53,000 sequences went through this assay and about 3,700 (7%) were called active.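 The calls were made as follows: active = gene knockdowns whose robust z-score for IL-1 alpha signal is at least 2 or at most -2, so actives lie on both sides; inactive = the rest.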 This is one part of the list.
# Experiment: Components of the Cytosolic LPS Sensing Pathway: Gene Identification via Genome-wide siRNA Screen;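 also: robust z of the log signal after scaling to non-targeting control siRNA wells of the plate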
# Details: RAW264.7 macrophages, IL-1a HTRF, actives lie on both sides, screened at 100 nM (by protocol), cells primed 5 h with Pam3CSK4 first
# Summary of the method: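 Knockdown: 100 nM siRNA, 48h, RAW264.7. Stimulation: Pam3CSK4 5 h, then LipidA via TransIT-TKO 24 h. Output: supernatant IL-1a HTRF, negative-control-normalized, log robust z-score; viability by CellTiter-Glo.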
row,Sequence,z-score
1,GGGAUUGGCACUUUCCAAGTT against Akap7,inactive: 1.75
2,CCCUUGCUUGCUAAGAUUUTT against Scyl3,inactive: -0.684
3,CGUUAACUCUCGGACGAUCTT against Fitm1,inactive: 0.576
4,GGAGUGAAAUUUACUGGGUTT against Hdgfl3,inactive: 1.28
5,GGUUUUAUCCCUGUUUCCUTT against Naaa,inactive: -0.115
6,GUUGGUAAAGGUCCUUGCCTT against Gtf2h5,inactive: 0.33
7,GGAGUCAACUUGUGAGGGUTT against Lrp8,inactive: -0.48
8,GGGUUCAAGAUAUCAAGUATT against 4933434E20Rik,inactive: 1.23
9,GCACCAUUUGAGUUUUUCUTT against Vmn1r8,inactive: -0.578
10,CCCUUGCUUUCAUGAUUUATT against Trim30b,inactive: 0.714
11,GGAGAGGUUCCAUGUGACUTT against Chchd10,inactive: -1.08
12,GGCCUGUAUUCUGCUCUGUTT against Olfr341,inactive: 0.0576
13,GCAGCUGUCCGUAUAUCUUTT against Uxt,inactive: 0.377
14,GGUUUUGGAUACCAAAAACTT against Cript,inactive: 0.106
15,CCCUGGACUAAGGAUCACCTT against Cops5,inactive: -1.2
16,GCUUAAUGCUAGGUUACAATT against Kng2,inactive: -1.2
17,GCCCACUUUGUUUAGUUAATT against Lancl1,inactive: 0.889
18,GCACAAUAAUAAUGACACUTT against AI597479,active: 2.76
19,GGAGAAACGGAAGGAAAAGTT against Rpl13a,inactive: 0.656
20,GCAUCGUGGAACCUAAAGATT against Rps3,inactive: -0.641
21,GCAAUUGACCAGAUUUGUGTT against Npr1,inactive: -0.384
22,GGCAAGGAGAAAGGAUUGUTT against Clec10a,inactive: -0.374
23,GGCUGAAGUAAGGUUUCACTT against Mrpl58,inactive: 0.354
24,CGAUACCUUCGCCAAAAAGTT against Tbc1d1,inactive: -0.47
25,GGGCUCCAAUUUGCUACCATT against Grp,inactive: 0.342
26,GGAUGAAGAUGCUGUCAGCTT against Arhgef3,inactive: -1.77
27,GGAAAGAAACUUUCUCUUUTT against Cdkn2d,inactive: -0.374
28,GGUCAACCAGAAACUUUACTT against Acvr1,inactive: -1.36
29,GGUGAUGCGCCUGAAGGAUTT against Ntng2,inactive: -0.668
30,GGUUGUGGCUGCUACUAUUTT against Pira1,inactive: 1.94

# For convenience, some entries already given:
row,Sequence,z-score
25,GGGCUCCAAUUUGCUACCATT against Grp,inactive: 0.342
26,GGAUGAAGAUGCUGUCAGCTT against Arhgef3,inactive: -1.77
